Assay results: publication PMC9010289
Read-outs that look alike come from different tables or passages of the source. No constants are given. Whether binding was seen depends on the method and setting. In cells and extracts the contact can be indirect. Some results given as binding are weak or reduced against the parent protein; the word gives no strength.

Sequences of proteins named here, by UniProt entry; tags and fusion partners are left off. Residues count along the entry.
UniProt Q9Z2I0, residues 115-738: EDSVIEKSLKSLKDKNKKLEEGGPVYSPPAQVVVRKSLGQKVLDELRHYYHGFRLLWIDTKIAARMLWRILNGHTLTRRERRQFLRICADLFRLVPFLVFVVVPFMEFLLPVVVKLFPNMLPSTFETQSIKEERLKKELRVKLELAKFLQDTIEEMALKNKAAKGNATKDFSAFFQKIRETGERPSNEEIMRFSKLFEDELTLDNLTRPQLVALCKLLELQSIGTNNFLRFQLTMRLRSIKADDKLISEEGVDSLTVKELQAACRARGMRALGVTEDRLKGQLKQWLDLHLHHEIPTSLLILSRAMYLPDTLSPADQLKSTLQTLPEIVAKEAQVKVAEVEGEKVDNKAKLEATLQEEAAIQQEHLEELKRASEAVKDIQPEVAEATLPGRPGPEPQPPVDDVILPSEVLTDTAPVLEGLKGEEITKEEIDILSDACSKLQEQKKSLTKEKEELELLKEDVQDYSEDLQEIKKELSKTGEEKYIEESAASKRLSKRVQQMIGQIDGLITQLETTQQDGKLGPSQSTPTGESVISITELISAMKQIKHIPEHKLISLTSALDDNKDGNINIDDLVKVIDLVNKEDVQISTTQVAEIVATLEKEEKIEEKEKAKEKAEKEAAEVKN
UniProt Q704Y3: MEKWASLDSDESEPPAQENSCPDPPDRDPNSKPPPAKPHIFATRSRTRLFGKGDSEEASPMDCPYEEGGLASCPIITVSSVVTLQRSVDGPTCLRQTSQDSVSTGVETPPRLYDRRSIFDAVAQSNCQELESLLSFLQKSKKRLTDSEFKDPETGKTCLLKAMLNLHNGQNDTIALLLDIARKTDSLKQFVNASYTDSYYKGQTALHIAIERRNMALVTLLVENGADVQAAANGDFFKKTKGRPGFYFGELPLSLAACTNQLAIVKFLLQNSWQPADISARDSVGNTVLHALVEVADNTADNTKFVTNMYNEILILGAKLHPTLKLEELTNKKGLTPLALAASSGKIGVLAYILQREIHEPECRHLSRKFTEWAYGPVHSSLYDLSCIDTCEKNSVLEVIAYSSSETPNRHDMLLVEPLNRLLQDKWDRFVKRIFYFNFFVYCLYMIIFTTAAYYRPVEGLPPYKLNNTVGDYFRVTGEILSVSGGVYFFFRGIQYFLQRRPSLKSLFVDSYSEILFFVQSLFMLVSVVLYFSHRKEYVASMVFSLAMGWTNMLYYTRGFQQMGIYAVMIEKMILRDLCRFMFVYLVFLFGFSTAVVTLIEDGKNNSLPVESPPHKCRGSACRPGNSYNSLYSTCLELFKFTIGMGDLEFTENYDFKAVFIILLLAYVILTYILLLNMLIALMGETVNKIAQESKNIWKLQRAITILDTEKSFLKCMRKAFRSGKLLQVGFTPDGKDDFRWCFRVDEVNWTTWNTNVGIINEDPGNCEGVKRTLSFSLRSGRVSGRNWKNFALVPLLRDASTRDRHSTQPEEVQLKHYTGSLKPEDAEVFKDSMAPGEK

T1: Uncoupling protein 1 (mouse (endogenous in brown adipose tissue)) (UniProt P12242)
T1 sequence: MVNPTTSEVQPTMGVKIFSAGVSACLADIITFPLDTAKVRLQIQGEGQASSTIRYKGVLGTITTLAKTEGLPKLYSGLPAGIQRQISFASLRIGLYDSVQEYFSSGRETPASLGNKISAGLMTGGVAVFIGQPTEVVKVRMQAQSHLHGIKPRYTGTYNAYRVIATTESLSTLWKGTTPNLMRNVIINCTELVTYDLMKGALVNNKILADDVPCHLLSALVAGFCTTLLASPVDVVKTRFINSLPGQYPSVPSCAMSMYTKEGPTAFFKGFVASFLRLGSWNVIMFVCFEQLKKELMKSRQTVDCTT


Key:
Experiment in all cases: co-IP; mouse BAT mitochondria of WT mice in lysis buffer; 1 µg anti-TRPV1/UCP1/LETM1 primary antibody or IgG overnight; protein A agarose; detected by immunoblotting
[1] = biological target: T1, Uncoupling protein 1 (mouse (endogenous in brown adipose tissue))
[2] = biological target: Leucine zipper-EF-hand containing transmembrane protein 1 (mouse (endogenous in brown adipose tissue)) (UniProt Q9Z2I0)
[3] = biological target: Leucine zipper-EF-hand containing transmembrane protein 1 (mouse (endogenous in brown adipose tissue)) (UniProt Q9Z2I0); remark: listed apart in the source

binding [1] | binding [2] | binding [3] | Molecule
binds | binds |  | Transient receptor potential vanilloid-1 (from UniProt Q704Y3 1-839)
 |  | binds | Uncoupling protein 1 (protein, UniProt P12242 1-307) MVNPTTSEVQPTMGVKIFSAGVSACLADIITFPLDTAKVRLQIQGEGQASSTIRYKGVLGTITTLAKTEGLPKLYSGLPAGIQRQISFASLRIGLYDSVQEYFSSGRETPASLGNKISAGLMTGGVAVFIGQPTEVVKVRMQAQSHLHGIKPRYTGTYNAYRVIATTESLSTLWKGTTPNLMRNVIINCTELVTYDLMKGALVNNKILADDVPCHLLSALVAGFCTTLLASPVDVVKTRFINSLPGQYPSVPSCAMSMYTKEGPTAFFKGFVASFLRLGSWNVIMFVCFEQLKKELMKSRQTVDCTT
